Test results from PubChem BioAssay AID540275 (National Center for Advancing Translational Sciences (NCATS), 2011).
About 620 (0.19%) of roughly 320,000 compounds were called active. Inconclusive results, whose numbers are uncertain, are shown with a selection of clear calls. Cut-off read from the data, not from the text of the source: active = activation above about 80%; inconclusive = between about 30% and that limit; inactive = weaker than that.

The chains behind the UniProt entries cited, without tags or fusion partners.
UniProt Q8NER1, whole entry, looked up: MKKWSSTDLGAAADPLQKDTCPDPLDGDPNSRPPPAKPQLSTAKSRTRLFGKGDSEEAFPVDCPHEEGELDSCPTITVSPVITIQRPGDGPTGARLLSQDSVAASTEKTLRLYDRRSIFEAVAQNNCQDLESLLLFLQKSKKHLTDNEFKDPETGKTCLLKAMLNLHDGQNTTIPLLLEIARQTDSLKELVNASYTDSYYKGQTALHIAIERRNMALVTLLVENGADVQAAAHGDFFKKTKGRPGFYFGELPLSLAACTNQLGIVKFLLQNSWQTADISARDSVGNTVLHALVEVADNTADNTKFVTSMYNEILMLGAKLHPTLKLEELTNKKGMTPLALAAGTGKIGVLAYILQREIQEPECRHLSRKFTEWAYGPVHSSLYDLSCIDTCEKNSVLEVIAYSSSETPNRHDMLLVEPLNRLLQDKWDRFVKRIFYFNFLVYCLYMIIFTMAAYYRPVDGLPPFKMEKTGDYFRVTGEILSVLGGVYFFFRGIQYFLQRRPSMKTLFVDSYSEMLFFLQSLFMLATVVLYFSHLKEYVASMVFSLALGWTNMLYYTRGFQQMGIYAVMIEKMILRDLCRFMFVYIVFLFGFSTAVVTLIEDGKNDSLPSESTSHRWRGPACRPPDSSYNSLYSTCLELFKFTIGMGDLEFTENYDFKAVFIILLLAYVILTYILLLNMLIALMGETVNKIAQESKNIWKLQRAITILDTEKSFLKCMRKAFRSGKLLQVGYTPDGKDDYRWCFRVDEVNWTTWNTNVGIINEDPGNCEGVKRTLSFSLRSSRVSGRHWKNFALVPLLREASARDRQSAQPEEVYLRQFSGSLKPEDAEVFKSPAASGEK

biological target: Transient receptor potential cation channel subfamily V member 1 (Homo sapiens) (UniProt Q8NER1); experiment: HTS Assay for Compounds that Act as Agonists of the Vanilloid Receptor 1; settings: TRPV1-expressing cells, Fluo-8 calcium influx, agonist mode; at 8.33 µM, hits give high values; note: 0% is about no effect
Outline: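 Cells expressing TRPV1 were dye-loaded with Fluo-8 and read kinetically: 10 s baseline, 3 min after compound (agonist portion), then 2 min after EC20 capsaicin (allosteric enhancer portion). Calcium-bound dye fluorescence at 480/520 nm.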

| SMILES | activation |
| --- | --- |
| CCOc1ccc(N2CC(C(=O)Nc3ccccc3F)CC2=O)cc1 (configuration not stated) | inconclusive: 30.5% |
| C/C(=N\NC(=O)Cc1ccccc1)c1ccc(Cl)s1 | inconclusive: 70.5% |
| O=C(NCc1nc2ccccc2[nH]1)C1=C[C@@H](C2CCCCC2)C[C@@H](OCc2ccc(CO)cc2)O1 | inactive: 3.13% |
| COc1ccc(C2=NN(c3ccccc3)C(=O)/C2=C\c2ccc(O)c(OC)c2)cc1 | inconclusive: 30.8% |
| Cc1ccn2c(-c3csc(NCc4ccccc4)n3)c(C)nc2c1 | inconclusive: 42.5% |
| Cc1cccc(-c2nnc3n2N=C(c2ccccc2)CS3)c1 | inconclusive: 37% |
| O=C1CCCc2c1cc(C(=O)O)c(=O)n2-c1ccccc1 | inactive: -1.81% |
| Cc1ccc(C(=O)O/N=C(\N)c2nonc2N)cc1 | inconclusive: 66.5% |
| CC(=O)Nc1cccc(C(=O)/C=C/c2ccc(N(C)C)cc2)c1 | active: 80.3% |
| O=C(c1cc2ccccc2o1)N1CCN(CCOc2ccccc2)CC1 | inconclusive: 33.1% |
| Cc1ccc(NC(=O)/C=C/c2cccc(C(F)(F)F)c2)cc1 | inconclusive: 49% |
| Cc1nc2ccc(C(=O)Nc3ccccc3Cl)cc2s1 | inconclusive: 34.1% |
| COc1ccc(C)cc1NC(=O)CN(C)S(=O)(=O)c1cc(C)ccc1OC | inconclusive: 43.5% |
| Cc1ccc(CNC(=O)CCCc2ccccc2)cc1 | inconclusive: 50.8% |
| CC(C)Cc1ccc(C(C)C(=O)Nc2ccccc2O)cc1 (configuration not stated) | inconclusive: 41.5% |
| O=C(OCC(=O)N1CCN(c2ccccc2)CC1)c1ccccc1[N+](=O)[O-] | inactive: 3.09% |
| O=C(C1CCN(S(=O)(=O)c2cccc3cccnc23)CC1)N1CCN(c2ccccn2)CC1 | inactive: 3.12% |
| CCCC(c1nnnn1CCOC)N1CCN(c2nc3ccccc3s2)CC1 (configuration not stated) | inactive: -5.03% |
| CCN(CC)C(=N)/C(C#N)=N/Nc1ccc(C)cc1 | inconclusive: 43.4% |
| O=C(NCc1ccc2c(c1)OCO2)c1ccc(-c2ccc(Cl)cc2)o1 | inconclusive: 73.1% |
| O=C(NC1CC1)c1ccc(-c2ccccc2)cc1 | active: 83% |
| COc1ccccc1C(=O)NC(=O)COc1ccc([N+](=O)[O-])cc1 | inconclusive: 30.6% |
| O=C(/C=C/c1ccccc1)c1ccoc1 | inconclusive: 40.8% |
| O=C(Cc1ccccc1)NCCSC1CCCCC1 | active: 93.7% |

A run of entries taken from the entries so far:

| SMILES | activation |
| --- | --- |
| Cc1ccc(C(=O)O/N=C(\N)c2nonc2N)cc1 | inconclusive: 66.5% |
| CC(=O)Nc1cccc(C(=O)/C=C/c2ccc(N(C)C)cc2)c1 | active: 80.3% |
| O=C(c1cc2ccccc2o1)N1CCN(CCOc2ccccc2)CC1 | inconclusive: 33.1% |

Going on with the list:

| SMILES | activation |
| --- | --- |
| CC(C)N(C(=O)CSc1nc(Cc2ccccc2)nc2ccccc12)C(C)C | inconclusive: 49.5% |
| CC(C)N(C(=O)CO/N=C/c1cccc([N+](=O)[O-])c1)C(C)C | inactive: -7% |
| CCN(CC)S(=O)(=O)c1ccc(C(=O)Nc2nnc(-c3ccco3)o2)cc1 | inactive: -1.18% |
| COc1ccc(NC(=O)C2CCCN(c3nc(C)cc(C)n3)C2)cc1 (configuration not stated) | inconclusive: 69% |
| N#CC(CO)(Cc1ccc(OC(F)F)cc1)c1nc2ccccc2[nH]1 (configuration not stated) | inconclusive: 48.2% |
| N#Cc1ccc(C2N=C(c3ccccc3)NO2)cc1 (configuration not stated) | inconclusive: 30.2% |
| CN1CCc2c(sc(N)c2C(N)=O)C1 | inconclusive: 36.7% |
| O=[N+]([O-])c1ccc(OCCN2CCNCC2)cc1 | inactive: 3.82% |
| COc1ccc(Nc2nc(NC(C)(C)C)nc(N3CCCC3)n2)c(OC)c1 | inconclusive: 31.5% |
| Cc1ccc(NC(=O)CN(C)C(=O)c2ccc(Cl)nc2)cc1 | inactive: -0.509% |
| COc1ccccc1C1CCN(C(=O)c2cccs2)CC1 | inconclusive: 39.2% |
| O=C(CSc1ccc(Br)cc1)N1CCOCC1 | active: 80% |
| CC(OC(=O)Cc1ccc(Br)cc1)C(=O)NC1CCCCC1C (configuration not stated) | inconclusive: 30.9% |
| O=C(Nc1ccc(C(F)(F)F)cn1)Nc1cccs1 | inactive: 4.55% |
| CCOC(=O)[C@H]1[C@H]2COc3cc(OC)ccc3[C@@H]2N2C(=O)c3cc(F)ccc3NC(=O)[C@@]12C | inconclusive: 48.4% |
| O=C(NC1CCCC1)C(c1ccc(F)cc1)N(Cc1ccc(F)cc1)C(=O)c1ccn[nH]1 (configuration not stated) | inconclusive: 41.3% |
| COc1ccc(CCNC(=O)C2CCC(CNc3c(N4CCCC4)c(=O)c3=O)CC2)cc1OC (configuration not stated) | inconclusive: 42.7% |
| O=C(O)CCCNC(=O)c1ccc(NC(=O)Cc2ccc(Cl)cc2)cc1 | inactive: -3.92% |
| COc1ccc(-c2nnc(SCc3ccccc3)n2N)cc1 | inactive: -1.61% |
| Cc1nc2[nH]onc2c2nccc(=O)c12 | inactive: -3.38% |
| Fc1ccc(NC(=S)NCc2ccc3c(c2)OCO3)cc1 | inconclusive: 35.8% |
| O=C(NCc1cccc(C(F)(F)F)c1)C1CCCN(c2ncccn2)C1 (configuration not stated) | inconclusive: 35.3% |
| Cc1ccc(CNC(=O)CCSCc2ccccc2C)cc1 | inconclusive: 48.4% |
